Source: article doi:10.1101/830802
Results are given in words; binding and its absence hold for the method and conditions named. In cells and extracts the contact can be indirect. Some binding calls cover weakened binding; strength is not graded here. Tags and fused reporters may be left off the sequences shown.

How the values were obtained:
[1] = target: T1, GFP-Auxilin R927G (human) (UniProt O75061); experiment: co-IP
T1 sequence: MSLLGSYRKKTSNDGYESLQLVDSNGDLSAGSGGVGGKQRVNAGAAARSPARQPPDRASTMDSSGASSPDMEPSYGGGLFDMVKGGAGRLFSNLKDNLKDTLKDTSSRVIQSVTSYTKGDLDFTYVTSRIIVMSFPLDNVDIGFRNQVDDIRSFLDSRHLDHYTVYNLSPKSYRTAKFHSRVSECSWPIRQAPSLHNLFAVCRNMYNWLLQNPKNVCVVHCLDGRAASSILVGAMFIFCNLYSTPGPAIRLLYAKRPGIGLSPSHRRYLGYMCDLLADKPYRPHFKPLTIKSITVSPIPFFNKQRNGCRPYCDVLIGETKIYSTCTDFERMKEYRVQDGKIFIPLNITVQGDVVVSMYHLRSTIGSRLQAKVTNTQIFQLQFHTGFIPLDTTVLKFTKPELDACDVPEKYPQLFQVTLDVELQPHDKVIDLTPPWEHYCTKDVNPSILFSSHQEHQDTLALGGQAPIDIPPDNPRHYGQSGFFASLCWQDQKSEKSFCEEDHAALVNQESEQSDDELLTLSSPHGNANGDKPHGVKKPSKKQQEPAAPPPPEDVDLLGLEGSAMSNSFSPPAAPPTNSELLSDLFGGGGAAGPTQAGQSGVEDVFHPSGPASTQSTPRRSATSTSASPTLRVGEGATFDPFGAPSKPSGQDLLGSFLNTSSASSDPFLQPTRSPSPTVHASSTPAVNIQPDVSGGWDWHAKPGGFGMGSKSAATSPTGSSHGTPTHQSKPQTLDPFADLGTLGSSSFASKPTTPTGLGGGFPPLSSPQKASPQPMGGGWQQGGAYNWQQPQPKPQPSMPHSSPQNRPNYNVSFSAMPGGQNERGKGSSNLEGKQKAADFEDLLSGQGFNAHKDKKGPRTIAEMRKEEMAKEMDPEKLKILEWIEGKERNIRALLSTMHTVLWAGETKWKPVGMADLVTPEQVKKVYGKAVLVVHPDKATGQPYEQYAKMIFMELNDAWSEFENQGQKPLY

GFP-GAK = target: T2, GFP-GAK (UniProt O14976); experiment: co-IP
T2 sequence: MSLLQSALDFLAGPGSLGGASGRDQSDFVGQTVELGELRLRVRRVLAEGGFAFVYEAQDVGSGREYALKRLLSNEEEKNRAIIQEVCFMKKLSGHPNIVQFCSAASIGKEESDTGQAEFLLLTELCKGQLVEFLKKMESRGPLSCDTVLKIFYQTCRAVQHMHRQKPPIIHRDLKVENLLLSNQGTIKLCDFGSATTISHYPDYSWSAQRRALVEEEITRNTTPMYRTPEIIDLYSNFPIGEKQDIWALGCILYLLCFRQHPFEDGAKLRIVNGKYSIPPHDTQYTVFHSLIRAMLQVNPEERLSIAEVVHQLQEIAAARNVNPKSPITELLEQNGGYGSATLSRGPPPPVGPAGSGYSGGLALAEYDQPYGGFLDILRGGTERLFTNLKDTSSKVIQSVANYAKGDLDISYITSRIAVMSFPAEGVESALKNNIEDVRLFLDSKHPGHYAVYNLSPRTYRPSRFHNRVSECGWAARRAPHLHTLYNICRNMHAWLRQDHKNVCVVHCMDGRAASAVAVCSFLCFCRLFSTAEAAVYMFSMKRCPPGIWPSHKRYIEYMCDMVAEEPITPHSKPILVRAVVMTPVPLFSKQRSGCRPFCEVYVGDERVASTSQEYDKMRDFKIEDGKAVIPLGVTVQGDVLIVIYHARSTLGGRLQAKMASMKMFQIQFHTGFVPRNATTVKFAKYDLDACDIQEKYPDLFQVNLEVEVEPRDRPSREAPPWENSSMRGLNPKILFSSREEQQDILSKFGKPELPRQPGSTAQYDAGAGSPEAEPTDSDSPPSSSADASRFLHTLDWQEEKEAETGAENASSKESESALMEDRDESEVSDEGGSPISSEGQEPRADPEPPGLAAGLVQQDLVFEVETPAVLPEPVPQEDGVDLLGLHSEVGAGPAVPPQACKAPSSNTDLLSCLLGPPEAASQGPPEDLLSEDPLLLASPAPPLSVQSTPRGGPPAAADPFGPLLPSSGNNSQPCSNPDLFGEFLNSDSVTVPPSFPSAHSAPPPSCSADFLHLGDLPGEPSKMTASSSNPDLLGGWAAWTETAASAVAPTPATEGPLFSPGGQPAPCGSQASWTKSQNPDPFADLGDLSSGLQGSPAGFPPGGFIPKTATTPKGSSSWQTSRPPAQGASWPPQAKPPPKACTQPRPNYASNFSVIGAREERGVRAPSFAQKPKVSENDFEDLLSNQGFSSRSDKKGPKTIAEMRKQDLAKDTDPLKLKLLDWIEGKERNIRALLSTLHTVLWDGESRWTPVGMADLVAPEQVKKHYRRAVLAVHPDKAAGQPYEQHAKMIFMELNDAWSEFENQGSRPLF

binding [1]: binds weakly | binding (GFP-GAK): no binding
B1: GGA3, endogenous in HEK293FT (protein, UniProt Q9NZ52 1-723)
chain: MAEAEGESLESWLNKATNPSNRQEDWEYIIGFCDQINKELEGPQIAVRLLAHKIQSPQEWEALQALTVLEACMKNCGRRFHNEVGKFRFLNELIKVVSPKYLGDRVSEKVKTKVIELLYSWTMALPEEAKIKDAYHMLKRQGIVQSDPPIPVDRTLIPSPPPRPKNPVFDDEEKSKLLAKLLKSKNPDDLQEANKLIKSMVKEDEARIQKVTKRLHTLEEVNNNVRLLSEMLLHYSQEDSSDGDRELMKELFDQCENKRRTLFKLASETEDNDNSLGDILQASDNLSRVINSYKTIIEGQVINGEVATLTLPDSEGNSQCSNQGTLIDLAELDTTNSLSSVLAPAPTPPSSGIPILPPPPQASGPPRSRSSSQAEATLGPSSTSNALSWLDEELLCLGLADPAPNVPPKESAGNSQWHLLQREQSDLDFFSPRPGTAACGASDAPLLQPSAPSSSSSQAPLPPPFPAPVVPASVPAPSAGSSLFSTGVAPALAPKVEPAVPGHHGLALGNSALHHLDALDQLLEEAKVTSGLVKPTTSPLIPTTTPARPLLPFSTGPGSPLFQPLSFQSQGSPPKGPELSLASIHVPLESIKPSSALPVTAYDKNGFRILFHFAKECPPGRPDVLVVVVSMLNTAPLPVKSIVLQAAVPKSMKVKLQPPSGTELSPFSPIQPPAAITQVMLLANPLKEKVRLRYKLTFALGEQLSTEVGEVDQFPPVEQWGNL
